Measurements: PMC8629984

The chains behind the UniProt entries cited, without tags or fusion partners.
UniProt Q9Y490: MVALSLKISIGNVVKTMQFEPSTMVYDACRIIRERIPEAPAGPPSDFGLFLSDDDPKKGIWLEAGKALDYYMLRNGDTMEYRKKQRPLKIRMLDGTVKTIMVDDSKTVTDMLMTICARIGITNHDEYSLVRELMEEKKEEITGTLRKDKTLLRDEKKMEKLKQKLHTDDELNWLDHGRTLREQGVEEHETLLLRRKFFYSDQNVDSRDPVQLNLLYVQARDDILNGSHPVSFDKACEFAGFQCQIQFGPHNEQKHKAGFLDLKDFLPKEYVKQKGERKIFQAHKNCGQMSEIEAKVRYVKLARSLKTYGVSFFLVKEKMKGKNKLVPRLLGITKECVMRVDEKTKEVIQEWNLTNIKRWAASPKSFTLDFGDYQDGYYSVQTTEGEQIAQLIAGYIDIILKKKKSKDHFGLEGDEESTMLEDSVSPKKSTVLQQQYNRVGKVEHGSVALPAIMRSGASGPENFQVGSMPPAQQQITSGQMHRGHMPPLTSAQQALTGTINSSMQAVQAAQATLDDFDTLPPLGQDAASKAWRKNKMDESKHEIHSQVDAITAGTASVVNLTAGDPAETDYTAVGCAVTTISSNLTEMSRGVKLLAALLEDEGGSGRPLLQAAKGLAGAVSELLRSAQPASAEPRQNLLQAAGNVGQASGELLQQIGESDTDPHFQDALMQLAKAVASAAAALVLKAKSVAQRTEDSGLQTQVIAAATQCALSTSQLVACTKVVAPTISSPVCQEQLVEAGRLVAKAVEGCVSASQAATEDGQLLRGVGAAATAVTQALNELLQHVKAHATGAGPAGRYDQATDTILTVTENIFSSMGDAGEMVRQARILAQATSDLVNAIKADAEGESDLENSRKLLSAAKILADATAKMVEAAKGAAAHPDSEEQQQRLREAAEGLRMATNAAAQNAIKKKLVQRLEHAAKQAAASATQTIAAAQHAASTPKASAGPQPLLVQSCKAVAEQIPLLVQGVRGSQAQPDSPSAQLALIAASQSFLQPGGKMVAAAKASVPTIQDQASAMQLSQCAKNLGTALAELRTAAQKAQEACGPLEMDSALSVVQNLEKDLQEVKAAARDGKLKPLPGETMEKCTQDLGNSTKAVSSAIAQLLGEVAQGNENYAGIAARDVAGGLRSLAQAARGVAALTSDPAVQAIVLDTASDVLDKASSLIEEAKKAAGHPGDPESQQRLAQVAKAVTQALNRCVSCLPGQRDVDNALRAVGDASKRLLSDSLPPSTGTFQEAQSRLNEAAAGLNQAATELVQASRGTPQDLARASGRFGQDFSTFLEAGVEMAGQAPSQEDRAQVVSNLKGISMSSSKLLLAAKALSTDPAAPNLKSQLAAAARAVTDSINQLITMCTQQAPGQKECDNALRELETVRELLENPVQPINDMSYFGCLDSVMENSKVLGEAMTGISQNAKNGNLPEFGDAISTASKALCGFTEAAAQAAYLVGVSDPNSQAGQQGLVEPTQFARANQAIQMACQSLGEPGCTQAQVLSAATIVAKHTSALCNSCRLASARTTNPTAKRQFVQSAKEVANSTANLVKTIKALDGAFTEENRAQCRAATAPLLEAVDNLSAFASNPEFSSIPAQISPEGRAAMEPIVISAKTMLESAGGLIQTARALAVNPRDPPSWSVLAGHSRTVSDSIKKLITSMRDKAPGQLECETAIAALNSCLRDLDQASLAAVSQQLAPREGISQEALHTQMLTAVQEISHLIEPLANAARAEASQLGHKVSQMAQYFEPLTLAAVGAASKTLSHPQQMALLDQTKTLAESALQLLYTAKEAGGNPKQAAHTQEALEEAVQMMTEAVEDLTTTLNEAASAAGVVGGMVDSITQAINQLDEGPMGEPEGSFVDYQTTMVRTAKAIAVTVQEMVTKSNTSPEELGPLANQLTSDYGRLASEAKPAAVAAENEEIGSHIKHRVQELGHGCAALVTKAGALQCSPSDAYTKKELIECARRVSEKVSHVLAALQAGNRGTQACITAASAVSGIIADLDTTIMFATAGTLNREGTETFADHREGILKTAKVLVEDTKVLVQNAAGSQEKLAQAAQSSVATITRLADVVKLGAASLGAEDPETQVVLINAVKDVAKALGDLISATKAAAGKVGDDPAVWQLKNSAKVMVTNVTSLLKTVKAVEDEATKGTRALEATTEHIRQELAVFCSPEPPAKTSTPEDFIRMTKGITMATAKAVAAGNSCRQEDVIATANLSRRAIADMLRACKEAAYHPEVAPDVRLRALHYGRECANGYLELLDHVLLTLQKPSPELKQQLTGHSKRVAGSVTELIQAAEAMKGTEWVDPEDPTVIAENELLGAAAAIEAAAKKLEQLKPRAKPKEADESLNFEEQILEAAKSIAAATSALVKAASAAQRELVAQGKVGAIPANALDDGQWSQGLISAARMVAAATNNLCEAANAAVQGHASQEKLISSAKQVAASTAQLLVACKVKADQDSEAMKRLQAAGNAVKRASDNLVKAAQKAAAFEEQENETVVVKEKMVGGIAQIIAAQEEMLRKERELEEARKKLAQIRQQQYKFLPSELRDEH
UniProt P35579: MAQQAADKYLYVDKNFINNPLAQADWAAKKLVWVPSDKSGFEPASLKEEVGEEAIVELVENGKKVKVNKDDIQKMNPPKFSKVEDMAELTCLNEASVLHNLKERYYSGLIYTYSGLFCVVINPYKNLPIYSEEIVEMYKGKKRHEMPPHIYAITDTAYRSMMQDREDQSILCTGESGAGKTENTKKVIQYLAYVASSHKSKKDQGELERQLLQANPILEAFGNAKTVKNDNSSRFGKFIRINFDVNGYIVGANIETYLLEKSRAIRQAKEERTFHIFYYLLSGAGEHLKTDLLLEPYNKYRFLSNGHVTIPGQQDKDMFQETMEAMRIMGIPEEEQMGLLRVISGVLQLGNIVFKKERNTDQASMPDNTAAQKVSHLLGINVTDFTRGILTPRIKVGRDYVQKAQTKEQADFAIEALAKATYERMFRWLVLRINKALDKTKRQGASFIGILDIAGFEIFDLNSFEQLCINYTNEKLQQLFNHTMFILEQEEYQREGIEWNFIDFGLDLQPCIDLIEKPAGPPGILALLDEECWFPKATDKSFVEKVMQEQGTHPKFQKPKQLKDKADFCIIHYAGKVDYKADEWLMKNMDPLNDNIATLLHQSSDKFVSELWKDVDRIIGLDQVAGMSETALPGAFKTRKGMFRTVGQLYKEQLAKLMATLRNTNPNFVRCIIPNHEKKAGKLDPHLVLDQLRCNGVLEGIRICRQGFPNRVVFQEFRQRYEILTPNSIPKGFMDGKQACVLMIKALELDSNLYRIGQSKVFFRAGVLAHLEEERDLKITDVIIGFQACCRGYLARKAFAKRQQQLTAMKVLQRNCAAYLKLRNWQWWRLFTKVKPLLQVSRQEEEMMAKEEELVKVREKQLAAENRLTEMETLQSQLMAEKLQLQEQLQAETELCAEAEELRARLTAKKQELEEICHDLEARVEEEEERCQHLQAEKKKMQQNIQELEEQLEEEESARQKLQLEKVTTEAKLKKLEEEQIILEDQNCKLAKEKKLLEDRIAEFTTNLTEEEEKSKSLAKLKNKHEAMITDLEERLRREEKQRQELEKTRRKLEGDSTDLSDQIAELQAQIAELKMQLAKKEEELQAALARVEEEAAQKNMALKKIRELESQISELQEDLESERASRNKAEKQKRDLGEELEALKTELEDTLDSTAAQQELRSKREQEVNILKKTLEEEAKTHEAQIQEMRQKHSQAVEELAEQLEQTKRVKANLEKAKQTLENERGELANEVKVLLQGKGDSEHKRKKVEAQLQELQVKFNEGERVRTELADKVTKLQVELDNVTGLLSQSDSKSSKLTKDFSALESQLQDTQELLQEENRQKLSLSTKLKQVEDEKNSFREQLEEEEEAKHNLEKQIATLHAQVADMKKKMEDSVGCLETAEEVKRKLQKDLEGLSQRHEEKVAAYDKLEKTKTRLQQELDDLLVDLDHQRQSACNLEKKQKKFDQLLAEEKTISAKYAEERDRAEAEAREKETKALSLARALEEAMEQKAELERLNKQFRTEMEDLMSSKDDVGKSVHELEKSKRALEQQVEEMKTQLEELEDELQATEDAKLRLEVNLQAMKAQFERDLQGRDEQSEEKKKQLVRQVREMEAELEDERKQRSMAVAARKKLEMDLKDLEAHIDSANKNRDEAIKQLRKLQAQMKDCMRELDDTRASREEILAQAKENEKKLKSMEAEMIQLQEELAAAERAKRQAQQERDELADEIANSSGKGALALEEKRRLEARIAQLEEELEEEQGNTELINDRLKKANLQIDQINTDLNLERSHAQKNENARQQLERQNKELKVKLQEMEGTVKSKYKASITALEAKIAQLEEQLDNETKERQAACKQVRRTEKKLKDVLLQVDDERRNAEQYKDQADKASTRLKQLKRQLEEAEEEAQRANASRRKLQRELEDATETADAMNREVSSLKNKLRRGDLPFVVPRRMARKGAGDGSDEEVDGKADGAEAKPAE

Molecular target: T1, autophagy-related protein 9B (ATG9B), endogenous (human (endogenous in SW620, LoVo, SW480)) (UniProt Q674R7)
T1 sequence: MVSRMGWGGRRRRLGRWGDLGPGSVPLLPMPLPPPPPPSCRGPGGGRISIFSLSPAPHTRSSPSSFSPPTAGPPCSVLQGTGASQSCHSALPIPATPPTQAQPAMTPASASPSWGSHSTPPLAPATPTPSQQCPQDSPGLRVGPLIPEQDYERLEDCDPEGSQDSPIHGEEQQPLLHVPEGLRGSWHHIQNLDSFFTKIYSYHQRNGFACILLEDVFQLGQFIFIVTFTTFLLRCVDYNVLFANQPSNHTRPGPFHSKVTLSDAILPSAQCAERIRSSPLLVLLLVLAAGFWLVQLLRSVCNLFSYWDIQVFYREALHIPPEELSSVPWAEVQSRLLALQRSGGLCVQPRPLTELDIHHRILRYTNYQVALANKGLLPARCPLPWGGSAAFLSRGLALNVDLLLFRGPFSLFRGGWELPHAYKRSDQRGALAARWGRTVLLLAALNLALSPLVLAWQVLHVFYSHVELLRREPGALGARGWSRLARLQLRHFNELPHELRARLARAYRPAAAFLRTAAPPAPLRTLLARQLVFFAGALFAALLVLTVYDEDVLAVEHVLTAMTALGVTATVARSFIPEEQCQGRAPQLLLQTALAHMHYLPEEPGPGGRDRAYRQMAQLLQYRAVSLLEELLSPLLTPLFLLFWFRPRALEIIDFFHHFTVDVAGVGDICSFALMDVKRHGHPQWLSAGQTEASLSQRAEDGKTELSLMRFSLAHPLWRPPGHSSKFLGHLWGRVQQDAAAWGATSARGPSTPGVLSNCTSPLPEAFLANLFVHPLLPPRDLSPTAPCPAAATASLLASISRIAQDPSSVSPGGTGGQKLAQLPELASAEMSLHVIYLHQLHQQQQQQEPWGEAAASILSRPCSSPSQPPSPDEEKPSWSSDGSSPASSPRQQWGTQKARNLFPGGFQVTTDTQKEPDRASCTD
Assay: affinity purification with mass spectrometry; LoVo and SW620 lysates, immunoprecipitation with anti-ATG9B antibody or rabbit IgG, silver staining, differential band at >170 KD analysed by LC-MS

| binding | Substance |
| --- | --- |
| binds | Talin-1, endogenous (from UniProt Q9Y490 1-2541) |
| binds | myosin-9 (MYH9), endogenous (from UniProt P35579 1-1960) |

No constants are given. Whether binding was seen depends on the method and setting. In cells and extracts the contact can be indirect. A yes stands for co-enrichment or nearness to the bait. Other partners may have been found.
